The values that follow come from publication PMC2908543, “Uropathogenic Escherichia coli Modulates Immune Responses and Its Curli Fimbriae Interact with the Antimicrobial Peptide LL-37” (PLoS Pathogens, 2010).

Amino acid sequences for entries named in this document (tags omitted). Residues count along the entry.
UniProt P28307, residues 21-151: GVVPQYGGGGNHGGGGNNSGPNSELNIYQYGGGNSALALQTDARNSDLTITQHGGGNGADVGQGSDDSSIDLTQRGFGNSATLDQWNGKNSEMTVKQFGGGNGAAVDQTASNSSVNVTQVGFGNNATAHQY

These are yes or no findings as the source states them, for the method shown. Some entries that bind do so weakly or less than the wild type.

Experiment [1] concerns the target recombinant CsgA-His6 (E. coli) (UniProt P28307). The experiment in a line: SPR; Biacore 3000; monomeric CsgA immobilised on a CM5 chip by amine coupling to 2000 response units; running buffer HBS-EP; 0.1 µM peptide injected at 20 µl/min for 3 min; both purified. (In general: Surface plasmon resonance follows binding to a sensor surface in real time, without labels.)

Experiment [2] shares this target. The experiment in a line: SPR; Biacore 3000; polymeric CsgA immobilised on a CM5 chip by amine coupling to 7000 response units; running buffer HBS-EP; 0.1 µM peptide injected at 20 µl/min for 3 min; both purified.

B1: vasoactive intestinal peptide (peptide, UniProt P01282 125-152)
peptide: HSDAVFTDNYTRLRKQMAVKKYLNSILN
For B1, the binding entry in experiment [1] and in experiment [2] was “binds weakly” in each case.
